Measured values published in patent US8044027B2, “Utilization of peptides as active ingredients for slimming” (ISP Investments Inc., priority 2006, dated 2011).
Part of at least one peptide drawing is inferred or uncertain, most often the ends. Ends that are not written are not given here.

System: pre-adipocyte cell line 3T3-L1
Experiment: Activity of the peptides on adipocytes: 3T3-L1 pre-adipocytes differentiated into mature adipocytes, Oil Red staining, microscope observation
Format: cell-based

Q: For “GLYDNLE [Peptide of sequence ID N° (5), Gly Leu Tyr Asp Asn Leu Glu]”, which “limitation of adipocyte hypertrophy” value (conclusion of the 3T3-L1 test, solution containing the peptide) is on record?
A: particularly effective

Q: What about the “morphology of mature adipocytes” value (mature adipocytes treated by solution containing the peptide, versus nontreated controls (voluminous spherical shape)) of the same substance?
A: less rounded morphology

Q: What about the “content of intra-adipocyte lipid vesicles” value (mature adipocytes treated by solution containing the peptide, versus nontreated controls, Oil Red stain, optical microscope) of the same substance?
A: clearly diminished
